Where a chain is given by its changes, count along the chain named. Names and notes keep the numbering of the source. These are yes or no findings as the source states them, for the method shown. Some results given as binding are weak or reduced against the parent protein; the word gives no strength. For some of these results: Tags and fused reporters may be left off the sequences shown.
Legend:
[1] = biological target: human His-FBG citrullinated with PAD2 (human) (UniProt P24821); test: SPR BIAcore 3000, 25 C, IgG4 captured on anti-human IgG
[2] = biological target: human His-FBG citrullinated with PAD4 (human) (UniProt P24821); test: as above
[3] = biological target: endogenous human tenascin-C in RA synovium (human) (UniProt P24821); test: immunohistochemistry on acetone/methanol-fixed cryosections of human RA synovium
[4] = biological target: T1, human TNC rCd4-His-FBG (rat; human) (UniProt P05540+P24821); test: SPR BIAcore T200, 37 C
T1 sequence (chain (part 1 of 2), looked up): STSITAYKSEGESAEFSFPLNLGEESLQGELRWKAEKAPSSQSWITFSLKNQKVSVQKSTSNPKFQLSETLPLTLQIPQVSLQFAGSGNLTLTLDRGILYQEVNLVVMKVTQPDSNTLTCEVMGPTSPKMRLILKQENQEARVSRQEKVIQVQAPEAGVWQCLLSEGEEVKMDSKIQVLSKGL
T1 sequence (chain (part 2 of 2), looked up): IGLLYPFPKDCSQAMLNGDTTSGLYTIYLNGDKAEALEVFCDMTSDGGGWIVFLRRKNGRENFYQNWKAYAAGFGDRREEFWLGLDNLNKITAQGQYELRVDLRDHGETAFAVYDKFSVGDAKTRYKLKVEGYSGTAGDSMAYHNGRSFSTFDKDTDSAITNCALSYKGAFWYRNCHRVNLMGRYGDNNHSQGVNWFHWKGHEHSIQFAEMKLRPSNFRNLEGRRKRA

[5] = biological target: T2, human TNR rCd4-His-FBG (rat; human) (UniProt P05540+Q92752); test: SPR BIAcore T200, 37 C
T2 sequence (chain (part 1 of 2), looked up): T1 sequence (chain (part 1 of 2), looked up)
T2 sequence (chain (part 2 of 2), looked up): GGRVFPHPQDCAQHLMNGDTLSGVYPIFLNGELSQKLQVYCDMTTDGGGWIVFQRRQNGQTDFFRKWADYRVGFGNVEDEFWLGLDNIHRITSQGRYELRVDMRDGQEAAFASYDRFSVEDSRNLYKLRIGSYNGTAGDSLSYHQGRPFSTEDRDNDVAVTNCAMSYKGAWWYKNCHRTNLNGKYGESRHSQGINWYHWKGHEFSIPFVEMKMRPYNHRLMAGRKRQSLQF

[6] = biological target: T3, mouse TNC rCd4-His-FBG (rat; mouse) (UniProt P05540+Q80YX1); test: SPR BIAcore T200, 37 C
T3 sequence (chain (part 1 of 2), looked up): T1 sequence (chain (part 1 of 2), looked up)
T3 sequence (chain (part 2 of 2), looked up): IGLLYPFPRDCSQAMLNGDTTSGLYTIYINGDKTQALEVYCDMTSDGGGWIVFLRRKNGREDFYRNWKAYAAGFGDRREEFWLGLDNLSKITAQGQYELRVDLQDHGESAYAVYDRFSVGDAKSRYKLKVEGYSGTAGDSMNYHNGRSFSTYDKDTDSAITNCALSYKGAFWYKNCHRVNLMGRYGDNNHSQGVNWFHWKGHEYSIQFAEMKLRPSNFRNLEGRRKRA

[7] = biological target: T3, mouse TNC rCd4-His-FBG (rat; mouse); test: SPR BIAcore T100, 25 C
[8] = biological target: T1, human TNC rCd4-His-FBG (rat; human); test: HTRF screen of scFv supernatants
[9] = biological target: T3, mouse TNC rCd4-His-FBG (rat; mouse); test: capture ELISA screen of scFv supernatants
[10] = biological target: T3, mouse TNC rCd4-His-FBG (rat; mouse); test: SPR, 37 C, purified IgG4 captured on anti-human Fc

B1: B12 human IgG4 (S241P) (antibody, V domains shown)
VH: QVQLVESGGGLVQPGRSLRLSCAASGFTFDDYAMHWVRQAPGKGLEWVSGISGSGGSTYYADSVKGRFTISRDNAKNSLYLQMNSLRAEDTALYYCAKDISAVPDTFDIWGQGTMVTVSS
VL: DIQMTQSPASLPTPVGDRVTITCRASQYIQGFLNWYQQKPGKAPKLLIYDASNLETGVPSRFSGSGSGTDFTLTISSLQPEDFATYYCQQSYSTPQTFGQGTKVDIKR
Question: What does the source list for B1?
Answer: binding [1]: binds; binding [2]: binds

B2: B12 mouse IgG2a (antibody, V domains shown)
VH: B1 VH
VL: B1 VL
Question: With B2 as the binder, how does the binding [3] read?
Answer: binds

B3: IgG4 165_13_C3* (antibody, V domains shown)
VH: B1 VH with D99S, I100Y, S101Q, A102S, V103D, P104E, T106A
VL: B1 VL with A9S, P12S, T13A, P14S
Question: What does the source list for B3?
Answer: binding [4]: binds; binding [5]: binds; binding [6]: binds

B4: B12 Fab (Fab, V domains shown)
VH: B1 VH
VL: B1 VL
Question: For B4, which binding [7] is on record?
Answer: binds

B5: 165_13_B1 scFv (scFv, V domains shown)
VH: B1 VH with D99V, I100M, A102S, V103M, P104E, T106A
VL: B1 VL
Question: With B5 as the binder, how does the binding [8] read?
Answer: binds

Question: What about the binding [9] of the same binder?
Answer: binds

B6: 165_13_B6 scFv (scFv, V domains shown)
VH: B1 VH with D99G, I100Q, S101K, A102G, V103E, P104G
VL: B1 VL
Question: B6 was tested. Which binding [8] did it give?
Answer: binds

Question: What about the binding [9] of the same binder?
Answer: binds

B7: 165_13_D1 scFv (scFv, V domains shown)
VH: B1 VH with D99G, I100T, S101R, A102G, V103E, P104G
VL: B1 VL
Question: With B7 as the binder, how does the binding [8] read?
Answer: binds

Question: What about the binding [9] of the same binder?
Answer: binds

B8: 165_13_C3 scFv (scFv, V domains shown)
VH: B1 VH with D99S, I100Y, S101Q, A102S, V103D, P104E, T106A
VL: B1 VL
Question: With B8 as the binder, how does the binding [8] read?
Answer: binds

Question: What about the binding [9] of the same binder?
Answer: binds

B9: 165_13_D4 scFv (scFv, V domains shown)
VH: B1 VH with D99G, I100T, S101V, A102G, V103E, P104G
VL: B1 VL
Question: Which results are given for B9?
Answer: binding [8]: binds; binding [9]: binds

B10: 165_13_A4 scFv (scFv, V domains shown)
VH: B1 VH with I100K, S101Y, A102P, P104L
VL: B1 VL
Question: B10 was tested. Which binding [8] did it give?
Answer: binds

Question: What about the binding [9] of the same binder?
Answer: binds

B11: 165_13_B3 scFv (scFv, V domains shown)
VH: B1 VH with D99A, I100L, S101A, A102R, V103G, P104H
VL: B1 VL
Question: Which results are given for B11?
Answer: binding [8]: binds; binding [9]: binds

B12: 180_11_F5 scFv (scFv, V domains shown)
VH: B1 VH with D99V, I100M, S101R, A102T, V103G, P104L
VL: B1 VL
Question: Which binding [8] does the source give for B12 here?
Answer: binds

Question: And the binding [9]?
Answer: binds

B13: 165_13_B1 human IgG4 (S241P) (antibody, V domains shown)
VH: B1 VH with D99V, I100M, A102S, V103M, P104E, T106A
VL: B1 VL
Question: For B13, which binding [10] is on record?
Answer: binds

B14: 165_13_D1 human IgG4 (S241P) (antibody, V domains shown)
VH: B1 VH with D99G, I100T, S101R, A102G, V103E, P104G
VL: B1 VL
Question: With B14 as the binder, how does the binding [10] read?
Answer: binds

— US20200223910A1
